Experimental data reported in PubChem BioAssay AID651803 (National Center for Advancing Translational Sciences (NCATS), 2012).
The campaign covered roughly 1,200 compounds. Fewer than 10 were called active. Calls follow the shape of the dose curve; as a rule, active = well fitted curve in the direction sought with a large enough effect; inconclusive = small, poorly fitted or top-dose-only effect, or another doubt; inactive = no such curve, though single readings can be large or run the other way. The list shows a part of the results.

By UniProt entry, the sequences of proteins in these tests, tags left out. Where a name states a change or a piece, a line headed by the entry shows the natural chain unless it says otherwise.
UniProt P11308: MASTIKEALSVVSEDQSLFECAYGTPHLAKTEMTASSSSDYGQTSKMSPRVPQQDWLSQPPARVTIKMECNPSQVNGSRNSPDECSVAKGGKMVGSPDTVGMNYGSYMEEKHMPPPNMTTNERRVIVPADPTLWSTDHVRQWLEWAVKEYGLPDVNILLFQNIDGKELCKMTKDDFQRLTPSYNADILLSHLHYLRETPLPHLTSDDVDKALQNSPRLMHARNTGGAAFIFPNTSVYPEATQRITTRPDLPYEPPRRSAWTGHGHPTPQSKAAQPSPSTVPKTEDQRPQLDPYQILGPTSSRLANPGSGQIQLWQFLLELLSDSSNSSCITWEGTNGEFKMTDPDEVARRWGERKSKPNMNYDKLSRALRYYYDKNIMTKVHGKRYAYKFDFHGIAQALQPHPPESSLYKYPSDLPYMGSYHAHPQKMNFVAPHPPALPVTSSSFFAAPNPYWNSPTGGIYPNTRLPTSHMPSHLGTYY

Molecular target: Transcriptional regulator ERG (Homo sapiens) (UniProt P11308)
Assay: qHTS for Small Molecule Inhibitors of the ERG Ets/DNA interaction: TR assay against cherry picks; also: % of control where 0% means no effect
Details: ERG Ets domain-DNA fluorescence polarization, Texas red probe; at 154 µM (top of the series)
Method in brief: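 Polarization read sequentially for fluorescein (ex 480/em 535 nm) and Texas red (ex 555/em 632 nm) probes, 5 nM and 100 nM solutions, displaced from His-ERG Ets domain (1 uM solution), pH 7.5 Tris/KCl/EDTA/DTT buffer.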

Activity change, negative = inhibition, inactive:
O=C(Nc1ccc(-n2cnnn2)cc1)C1CCCCC1 -1.29%
CC1(C)C=C2C(=NN(c3ccccc3)C(N)=C2C#N)CO1 -5.68%
COc1c2c(c(CCC(=O)O)c3c1C=CC(C)(C)O3)OC(C)(C)C=C2 0.0019%
Cc1ccc(C(=C2C3C=CC2C2C(=O)NC(=O)C32)c2ccc(C)cc2)cc1 (centres undefined) -2.25%
COc1cc(SC)ccc1C(=O)NC(C)C 2.03%
CCCC(=O)Nc1nc2c(C)c(Cl)ccc2s1 0.396%
NS(=O)(=O)c1ccc(NC(=O)/C(=C/c2ccncc2)NC(=O)c2ccccc2)cc1 3.48%
O=S(=O)(c1ccccc1)N1CCN(c2ncnc3scc(-c4ccccc4)c23)CC1 2.44%
O=C(NC1CCN(S(=O)(=O)c2ccccc2C(F)(F)F)CC1)c1ccco1 -11.1%
CCOCC(=O)N1CCC(Cc2ccccc2)CC1 -6.54%
CC1(C)CC(=O)C2=C(C1)Nc1ccccc1NC2c1cccs1 (centres undefined) 19.5%
CCOC(=O)C1=C(C)c2ccccc2N(S(=O)(=O)C(F)(F)F)C1C(=O)OCC (centres undefined) -17.1%
COc1cccc(OC)c1C(=O)Nn1c(-c2cccs2)nc2ccccc2c1=O 1.79%
O=C(Nc1ccccc1-c1ccccc1)C1CCCCC1 9%
O=C(Nc1ccc(F)cc1F)NC1CC1 23%
O=C(CCCN1C(=O)/C(=C\c2cccs2)SC1=S)Nc1cccc(C(=O)O)c1 -12.4%
O=C(Nc1ccc(N2CCOCC2)cc1)c1ccc2nc(-c3ccco3)c(-c3ccco3)nc2c1 -17%
Nc1nnc(-c2ccccc2F)s1 1.46%
Cc1cccc(C(=O)Nc2ccc(C(=O)N3CCCCC3C)cc2)c1 (centres undefined) -0.764%
CCOC(=O)C(NC(=O)CC(C)C)(Nc1sc2c(c1C(N)=O)CCCC2)C(F)(F)F (centres undefined) 1.6%
Cc1[nH]c2ccc(F)cc2c1CCNC(=O)C1CCCCC1C(=O)OCC(F)(F)F (centres undefined) 4.99%
O=C(COC(=O)/C=C/c1ccc([N+](=O)[O-])cc1)NCc1cccs1 5.97%
COc1ccc(C2CC(=O)C(C=NCCN3CCN(C(=S)Nc4ccccc4)CC3)=C(O)C2)cc1 (centres undefined) -3.46%
COc1ccc(CC(=O)OCC(=O)Nc2cccnc2Cl)cc1OC 4.98%
Cc1ccc(/C=C2\SC(N3CCCCC3)=NC2=O)cc1 -1.4%
COc1ccc(-n2cnc3cc(C(=O)NC4CCCC4)ccc32)cc1 6.09%
Cc1ccc2oc(-c3ccc(NC(=O)CC(C)C)cc3)nc2c1 -3.59%
CCCCOc1ccc(C(=O)NCCC(=O)NCCCC(=O)OCC)cc1 -1.46%
Cc1ccc(N(CC(=O)NCc2ccccc2)C(=O)CCC(=O)Nc2nccs2)cc1 -7.85%
Cc1ccc(NC(=O)CSc2nc3ccccc3c3nc(CCn4c(C)nc5ccccc54)nn23)cc1F -12%
COC(=O)CSc1nnc(CNC(=O)c2ccc(S(=O)(=O)N3CCOCC3)cc2)n1C 0.773%
Cc1ccc(CNC(=O)N[C@@H](Cc2ccccc2)C(=O)O)cc1 -1.01%
CN1CCC2(CC1)C1CN(C)CC=C1C(C#N)=C(N)C2(C#N)C#N (centres undefined) 1.38%
CCOC(=O)C1CN(S(=O)(=O)c2cc(OC)ccc2OC)C1 -3.41%
CN(C)c1ccc2c3c(ccc(N(C)C)c13)C(=O)OC2 3.2%
CC(=O)c1ccc(OCc2ccc(Oc3c(Cl)cccc3[N+](=O)[O-])cc2)cc1 0.0583%
CCOC(=O)c1c(C)n(CCOc2ccccc2)c2ccc(O)cc12 3.37%
CC(C)OCCCNC(=O)C1CCC(CNS(=O)(=O)c2ccccc2)CC1 (centres undefined) 1.24%
COC(=O)c1cc(-c2ccc(Cl)cc2)n(-c2ccc(S(N)(=O)=O)cc2)n1 2.99%
CC(C)Cn1c(SCC(=O)NCc2ccc(Cl)cc2)nnc1-c1cccc(S(=O)(=O)N2CCOCC2)c1 -11.2%
N#CC1=C(N)Oc2c(ccc3cccnc23)C1c1cccnc1 (centres undefined) 0.537%
CCc1ccccc1NC(=O)c1nnn(-c2ccc(F)cc2)c1C -15.7%
Cc1cc(C)c(NC(=O)Cn2c(=O)n(CCC(=O)N3CCc4ccccc4C3)c(=O)c3ccccc32)c(C)c1 -25.3%
O=C(/C=C/c1cccs1)N1CCN(Cc2ccc3c(c2)OCO3)CC1 9.52%
CC1Cc2ccccc2N1CC(=O)Nc1ccc2c(c1)OCO2 (centres undefined) -2.39%
CC(C)CN1CCc2nc(Nc3ccc(F)cc3F)ncc2C1 -4.49%
COc1cc(NC(=O)c2noc(C)c2[N+](=O)[O-])c(OC)cc1Cl -10.2%
NC(=NCCCCCCN=C(N)/N=C(\N)Nc1ccc(Cl)cc1)/N=C(\N)Nc1ccc(Cl)cc1 -2.89%
Cc1cc(Br)ccc1NC(=O)CN(C)C(=O)COc1cccc2c1OC(C)(C)C2 -1.51%
CCOc1ccccc1N(C)S(=O)(=O)c1ccc2[nH]cc(C(=O)N(CCOC)CCOC)c(=O)c2c1 -11%
O=C(c1ccccc1)c1ccc[nH]1 -4.34%
CCCN(CCC)Cc1c(C(=O)N/N=C/c2cccs2)nnn1-c1nonc1N 1.84%
CC12CCC(=O)N1C(C(=O)NCCN1C(=O)S/C(=C\c3ccccc3Cl)C1=O)CS2 (centres undefined) 0.927%
CCOC(=O)c1c(NC(=O)CN2C(=O)NC3(CCC(C)CC3)C2=O)sc(C)c1-c1ccc(C)cc1 (centres undefined) 4.55%
CCOc1ccc(N(CC(=O)NCCc2ccc(Cl)cc2)S(=O)(=O)c2c(C)[nH]c(=O)[nH]c2=O)cc1 -12.2%
CC1(C)C(=O)NCCN1C(=O)c1ccc2nc(Cc3ccccc3F)oc2c1 -2.67%
COc1ccc(-n2nc(C(=O)NCC(=O)Nc3cc(OC)ccc3OC)c3ccccc3c2=O)cc1 20.2%
COc1ccc(-c2nn3c(=O)cc(CN4CCN(C(=O)/C=C/c5ccccc5)CC4)nc3s2)cc1 -22%
CC1(C)C2CCC1(CS(=O)(=O)N1CCC(C(N)=O)CC1)C(=O)C2 (centres undefined) 18.6%
O=C(COC(=O)c1cccc(-n2cnnn2)c1)c1ccccc1 -8.77%
O=C(COC(=O)/C=C/c1cccc(C(F)(F)F)c1)NC1CCS(=O)(=O)C1 (centres undefined) -22.4%
O=S(=O)(NCCNS(=O)(=O)c1ccc(F)cc1)c1ccc(F)cc1 21.4%
Cc1cc2cc(CNC(=O)c3cccc([N+](=O)[O-])c3)ccc2[nH]1 1.92%
COC(=O)c1ccc(C2=NOC(C)(c3sc(-c4ccccc4)nc3C)C2)cc1 (centres undefined) -5.17%
Nc1c2ccccc2nc2ccccc12 -12.1%
CCCCC1=NN(C(=O)c2ccco2)C(O)(C(F)(F)F)C1 (centres undefined) -2.3%
Cc1cc(S(=O)(=O)N2CCOCC2)ccc1OCC(=O)Nc1ccc(F)c(Cl)c1 3.47%
COc1ccc(/C=N/NC(=O)c2ccc(Br)cc2)c(OC)c1 0.107%
COc1ccccc1C(=O)Nn1c(-c2cccs2)nc2ccccc2c1=O 2.95%
O=C(CN1C(=O)NC2(CCCC2)C1=O)NNC(=O)c1ccc(Cl)cc1 -0.343%
COc1cc(CCC(=O)Nc2ccc(Br)c(C(F)(F)F)c2)cc(OC)c1OC 4.91%
Cc1cc(C)nc(N2C(=O)CC(Cc3ccc(Cl)cc3)C2=O)n1 (centres undefined) -7.35%
CCc1ccccc1NC(=O)CSc1nnc(COc2ccccc2Cl)o1 -12.6%
Cc1cc(C)nc(N2CCCC(C(=O)Nc3ccc(F)cc3)C2)n1 (centres undefined) -9.81%
C=CCC[C@H](Cc1ccc(F)cc1)C(=O)OC[C@@H](Cc1c[nH]c2ccccc12)NC(=O)[C@H](CC=C)CC(=O)N(CCO)Cc1ccccc1 -7.14%
CC(C)(CNC(=O)CC1C(=O)NCCN1Cc1cccc(F)c1)N1CCOCC1 (centres undefined) 0.0185%
COC(=O)c1ccsc1NC(=O)c1cccc(OC)c1 -16.4%
CC(=O)c1cc(-c2ccccc2)n(CCC(=O)NC(C)(C)C)c1C 0.0296%
COc1ccc(Oc2ccc(N/C=C3\CCCC3=O)cc2)cc1 11.5%
O=C(Oc1ccc(Br)cc1)c1n[nH]c(=O)c2ccccc12 1.69%
COc1ccc(OCCCC(=O)Nc2cccc(C(C)=O)c2)cc1 -4.19%
O=c1o[nH]c(-c2ccccc2)c1-c1ccccc1 -5.75%
Cc1ccc(C(=O)NC(=S)Nc2ccc(NC(=O)c3cccc(Cl)c3)cc2)cc1 -1.07%
COc1ccc(S(=O)(=O)N2CC(C)OC(C)C2)cc1C(=O)N1CCCCC1 (centres undefined) 3.8%
Nn1c(Cc2ccccc2)nc2sc3c(c2c1=O)CCC3 5.36%
Cc1cc(/C=C2\C(=N)N3N=C(C(C)C)SC3=NC2=O)c(C)n1-c1ccccc1 -6.98%
O=c1[nH]cc(S(=O)(=O)Nc2ccc3c(c2)OCO3)c(=O)[nH]1 5.59%
CCOC(=O)C1CCC(CN(Cc2ccccc2C)S(=O)(=O)c2ccc([N+](=O)[O-])cc2)CC1 (centres undefined) -8.45%
Cc1ccc(NS(=O)(=O)c2ccc(CCC(=O)NCCCOC(C)C)cc2)cc1 -2.3%

5 successive compounds out of the list so far, quoted:
Activity change, negative = inhibition, inactive:
CC12CCC(=O)N1C(C(=O)NCCN1C(=O)S/C(=C\c3ccccc3Cl)C1=O)CS2 (centres undefined) 0.927%
CCOC(=O)c1c(NC(=O)CN2C(=O)NC3(CCC(C)CC3)C2=O)sc(C)c1-c1ccc(C)cc1 (centres undefined) 4.55%
CCOc1ccc(N(CC(=O)NCCc2ccc(Cl)cc2)S(=O)(=O)c2c(C)[nH]c(=O)[nH]c2=O)cc1 -12.2%
CC1(C)C(=O)NCCN1C(=O)c1ccc2nc(Cc3ccccc3F)oc2c1 -2.67%
COc1ccc(-n2nc(C(=O)NCC(=O)Nc3cc(OC)ccc3OC)c3ccccc3c2=O)cc1 20.2%
